Results are given in words; binding and its absence hold for the method and conditions named. Some results given as binding are weak or reduced against the parent protein; the word gives no strength.
Legend:
[1] = target: T1, CD39 mutant 6 (human) (UniProt P49961); experiment: flow cytometry, Hek-293T cells expressing mutant 6
T1 sequence: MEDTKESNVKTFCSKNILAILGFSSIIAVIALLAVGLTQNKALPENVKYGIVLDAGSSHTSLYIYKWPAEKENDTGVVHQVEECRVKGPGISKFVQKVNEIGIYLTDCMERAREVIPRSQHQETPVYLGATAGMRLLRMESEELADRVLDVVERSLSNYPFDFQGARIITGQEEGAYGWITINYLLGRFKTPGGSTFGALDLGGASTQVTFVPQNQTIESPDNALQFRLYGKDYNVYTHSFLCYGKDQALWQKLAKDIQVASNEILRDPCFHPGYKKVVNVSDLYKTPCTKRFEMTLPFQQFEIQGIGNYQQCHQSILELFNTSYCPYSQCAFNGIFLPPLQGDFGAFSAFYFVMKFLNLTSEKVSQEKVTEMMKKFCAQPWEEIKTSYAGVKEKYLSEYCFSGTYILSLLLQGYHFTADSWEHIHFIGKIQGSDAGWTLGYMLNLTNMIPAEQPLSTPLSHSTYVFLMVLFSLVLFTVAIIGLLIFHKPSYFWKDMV

[2] = target: T2, CD39 mutant 9 (human) (UniProt P49961); experiment: flow cytometry, Hek-293T cells expressing mutant 9
T2 sequence: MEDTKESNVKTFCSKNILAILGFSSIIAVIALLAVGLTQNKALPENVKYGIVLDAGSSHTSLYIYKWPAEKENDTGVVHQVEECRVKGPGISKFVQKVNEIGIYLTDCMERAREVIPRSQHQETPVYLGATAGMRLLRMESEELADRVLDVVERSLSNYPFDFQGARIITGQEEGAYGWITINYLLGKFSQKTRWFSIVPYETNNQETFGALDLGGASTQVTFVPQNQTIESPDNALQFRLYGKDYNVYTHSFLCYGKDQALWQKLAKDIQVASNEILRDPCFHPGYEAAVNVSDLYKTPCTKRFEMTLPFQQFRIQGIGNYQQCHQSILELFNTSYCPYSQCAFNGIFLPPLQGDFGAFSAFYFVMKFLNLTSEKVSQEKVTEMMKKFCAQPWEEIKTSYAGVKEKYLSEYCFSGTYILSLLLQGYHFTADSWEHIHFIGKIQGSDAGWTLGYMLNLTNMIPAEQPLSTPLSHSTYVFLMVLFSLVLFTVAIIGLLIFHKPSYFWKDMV

[3] = target: T3, CD39 mutant 17 (human) (UniProt P49961); experiment: flow cytometry, Hek-293T cells expressing mutant 17
T3 sequence: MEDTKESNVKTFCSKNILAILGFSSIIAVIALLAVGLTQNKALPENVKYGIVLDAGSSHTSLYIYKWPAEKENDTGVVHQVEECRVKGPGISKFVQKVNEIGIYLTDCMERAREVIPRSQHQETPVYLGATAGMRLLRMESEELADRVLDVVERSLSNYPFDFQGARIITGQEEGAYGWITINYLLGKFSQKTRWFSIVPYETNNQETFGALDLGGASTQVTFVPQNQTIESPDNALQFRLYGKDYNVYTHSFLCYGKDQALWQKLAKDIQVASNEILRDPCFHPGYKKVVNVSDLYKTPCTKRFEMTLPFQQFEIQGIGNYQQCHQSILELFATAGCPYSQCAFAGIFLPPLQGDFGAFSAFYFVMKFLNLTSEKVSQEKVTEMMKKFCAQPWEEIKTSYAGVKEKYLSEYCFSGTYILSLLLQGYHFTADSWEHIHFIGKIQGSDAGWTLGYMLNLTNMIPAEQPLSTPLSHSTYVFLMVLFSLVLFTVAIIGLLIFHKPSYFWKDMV

[4] = target: T4, CD39 mutant 4 (human) (UniProt P49961); experiment: flow cytometry, Hek-293T cells expressing mutant 4
T4 sequence: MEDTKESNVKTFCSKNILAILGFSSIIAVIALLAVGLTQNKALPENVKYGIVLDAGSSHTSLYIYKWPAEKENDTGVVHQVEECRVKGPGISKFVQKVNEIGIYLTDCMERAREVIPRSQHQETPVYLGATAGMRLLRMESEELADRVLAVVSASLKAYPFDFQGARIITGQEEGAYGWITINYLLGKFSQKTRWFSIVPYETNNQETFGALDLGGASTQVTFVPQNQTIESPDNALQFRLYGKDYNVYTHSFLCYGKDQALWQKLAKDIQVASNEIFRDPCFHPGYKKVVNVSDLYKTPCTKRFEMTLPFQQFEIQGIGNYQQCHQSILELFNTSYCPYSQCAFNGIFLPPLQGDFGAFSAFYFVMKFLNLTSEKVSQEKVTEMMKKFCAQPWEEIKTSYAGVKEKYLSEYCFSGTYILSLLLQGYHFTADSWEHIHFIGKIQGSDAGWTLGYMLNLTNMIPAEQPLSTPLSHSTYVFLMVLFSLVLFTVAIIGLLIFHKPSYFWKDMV

[5] = target: T5, CD39 mutant 10B (human) (UniProt P49961); experiment: flow cytometry, Hek-293T cells expressing mutant 10B
T5 sequence: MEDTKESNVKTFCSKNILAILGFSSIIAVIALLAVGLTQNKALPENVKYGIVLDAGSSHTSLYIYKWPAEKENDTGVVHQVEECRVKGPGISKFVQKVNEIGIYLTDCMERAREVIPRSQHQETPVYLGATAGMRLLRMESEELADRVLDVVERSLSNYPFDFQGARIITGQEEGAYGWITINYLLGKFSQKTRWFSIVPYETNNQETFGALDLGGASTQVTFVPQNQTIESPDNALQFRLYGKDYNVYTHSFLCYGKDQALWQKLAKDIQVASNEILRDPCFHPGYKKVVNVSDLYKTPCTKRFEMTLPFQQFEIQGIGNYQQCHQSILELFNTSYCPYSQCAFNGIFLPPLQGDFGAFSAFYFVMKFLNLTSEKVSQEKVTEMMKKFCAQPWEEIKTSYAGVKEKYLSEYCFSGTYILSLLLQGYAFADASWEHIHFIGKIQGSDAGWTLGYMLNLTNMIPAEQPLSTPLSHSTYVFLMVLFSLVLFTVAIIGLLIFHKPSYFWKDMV

binding [1]: binds
binding [2]: binds
binding [3]: binds
binding [4]: binds
binding [5]: binds
B1: antibody I-399 (antibody, V domains shown)
VH: PVQLQQPGAEVVMPGASVKLSCKASGYTFTSFWMNWMRQRPGQGLEWIGEIDPSDFYTNSNQRFKGKATLTVDKSSSTAYMQLSSLTSEDSAVYFCARGDFGWYFDVWGTGTSVTVSS
VL: EIVLTQSPTTMTSSPGEKITFTCSASSSINSNYLHWYQQKPGFSPKLLIYRTSNLASGVPTRFSGSGSGTSYSLTIGTMEAEDVATYYCQQGSSLPRTFGGGTKLEIK
